Among the data in article PMC8383118 are binding values, retold here.

These are yes or no findings as the source states them, for the method shown. For some assays here: Binding can be weak; no strength is given.

In assay [1] the target is T1, paratox (Prx) from S. pyogenes MGAS315 (Streptococcus pyogenes MGAS315 (prophage)) (UniProt Q4VUT1).
T1 sequence: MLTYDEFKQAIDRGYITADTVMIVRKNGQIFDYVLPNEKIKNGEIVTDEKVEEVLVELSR
Kind of assay: pull-down; Prx (with a His-tag) on Ni-NTA resin as bait, purified ComR ortholog (no His-tag) added; 20 mM Tris-HCl pH 7.5, 100 mM NaCl, 1 mM β-ME, 4 °C; SDS-PAGE; both purified.

Assay [2] has as its target ComR S. mutans, full length (Streptococcus mutans). Kind of assay: other fluorescence titration; competition: 0.2 μM dansyl-XIP, 0.5 μM ComR and increasing unlabeled XIP or Prx, 1 h, room temperature; 20 mM HEPES pH 7.5, 100 mM NaCl, 1 mM β-ME; dansyl emission intensity; both purified.
The target of assay [3] is Rgg3 S. pyogenes (Streptococcus pyogenes). Kind of assay: SEC; proteins incubated on ice 15 min at 1:1.5 molar ratio ComR:Prx (higher ratio of DBD); Superdex 75; 20 mM Tris-HCl pH 7.5, 100 mM NaCl, 1 mM β-ME; fractions on SDS-PAGE; both purified. A general note: Size exclusion chromatography separates by hydrodynamic size, large species first.
The target in assay [4] is ComR S. pyogenes MGAS5005 (Streptococcus pyogenes MGAS5005). The assay is described as above.
Assay [5] has as its target ComR S. mutans TPR domain construct (Streptococcus mutans). The description is as above.
In assay [6] the target is ComR S. mutans DNA-binding domain (DBD) construct (Streptococcus mutans). The description is as above.
Assay [7] has as its target ComR S. suis (Streptococcus suis). Described as above.
Assay [8] has as its target ComR S. mutans, full length (Streptococcus mutans). The description is as above.
Assay [9] concerns the target ComR S. thermophilus (Streptococcus thermophilus). The description is as above.
Assay [10] concerns the target ComR S. mutans, full length (Streptococcus mutans). Kind of assay: SEC-SAXS; ComR, ComR:Prx and Prx at 9 mg/ml; 20 mM Tris-HCl pH 7.5, 100 mM NaCl, 1 mM β-ME; both purified.
The target of assay [11] is ComR S. mutans DNA-binding domain (DBD) construct (Streptococcus mutans). Kind of assay: crystal structure; DBD:Prx complex isolated by SEC and crystallised (PDB 7N10); also crystals after in situ α-chymotrypsin digestion of the ComR:Prx complex (PDB 7N1N); 4 °C; both purified.

For the molecule “ComR S. thermophilus (Streptococcus thermophilus) (receptor)”, the binding result in assay [1] is recorded as “binds”.
With “ComR S. mutans, full length (Streptococcus mutans) (receptor)”, in [1], the binding entry was “binds”.
As for “ComR S. pyogenes MGAS5005 (Streptococcus pyogenes MGAS5005) (receptor)”, in assay [1], the binding result is on record as “binds”.
With “ComR S. suis (Streptococcus suis) (receptor)”, the binding result in assay [1] is “binds”.

B1: unlabeled S. mutans XIP (GLDWWSL) (peptide)
peptide: GLDWWSL
On to B1, for which the binding result in assay [2] is listed as “binds”.

B2: paratox (Prx) from S. pyogenes MGAS315 (protein, UniProt Q4VUT1 1-60)
chain: T1 sequence
B2: the binding entry in assay [3] is recorded as “no binding”; in assay [4], “binds”; in assay [5] it was “no binding”; in [6], “binds”; in assay [7], “binds”; in assay [8] it was “binds”. The binding entry in assay [9], in [10] and in [11] was “binds” in each case.
